{
  "source": "the supplement of paper PMC8728848",
  "binders": {"B1": {"name": "SLLPI (Mus musculus), Q9D9X8 (protein)", "chain": "MGICMSMYTQVLVPVDADGDHHILWSRFYERWGSCFNPCAGLVNCLPPHSSALYLCHRMEARSRAPRRQLCPPGITWLALAYLLSCLLASSKAKVFSRCELAKEMHDFGLDGYRGYNLADWVCLAYYTSGFNTNAVDHEADGSTNNGIFQISSRRWCRTLASNGPNLCRIYCTDLLNNDLKDSIVCAMKIVQEPLGLGYWEAWRHHCQGRDLSDWVDGCDF"}},
  "assay_in_all_cases": "glycan array binding signal (z-score within array); higher = stronger binding",
  "settings_in_all_cases": "glycan notation: IUPAC condensed, linker removed",
  "key": {"[1]": {"molecular_target": "Gal(b1-3)[Fuc(a1-4)]GlcNAc(b1-3)Gal(b1-4)[Fuc(a1-3)]GlcNAc", "summary_of_the_method": "(§1)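 Glycan array data came from 3228 arrays in the Consortium for Functional Glycomics database, and only arrays with an available protein sequence were kept. Glycan names were put into IUPAC-condensed notation, and columns mapping to the same glycan were averaged. The binding signal is a within-array Z-score, averaged across arrays of one protein sequence run at different concentrations or buffers and across linkers. A negative Z-score can be read as non-binding.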"}, "[2]": {"molecular_target": "Gal(b1-3)[GlcNAc(b1-6)]GalNAc", "summary_of_the_method": "as §1"}, "[3]": {"molecular_target": "Gal(b1-3)[Neu5Ac(a2-6)]GalNAc", "summary_of_the_method": "as §1"}, "[4]": {"molecular_target": "Gal(b1-3)[Neu5Ac(a2-6)]GlcNAc(b1-6)Gal(b1-4)Glc", "summary_of_the_method": "as §1"}, "[5]": {"molecular_target": "Gal(b1-3)[Neu5Ac(b2-6)]GalNAc", "summary_of_the_method": "as §1"}, "[6]": {"molecular_target": "Gal(b1-4)GalNAc(a1-3)[Fuc(a1-2)]Gal(b1-4)GlcNAc", "summary_of_the_method": "as §1"}, "[7]": {"molecular_target": "Gal(b1-4)GalNAc(b1-3)[Fuc(a1-2)]Gal(b1-4)GlcNAc", "summary_of_the_method": "as §1"}, "Gal(b1-4)Glc": {"molecular_target": "Gal(b1-4)Glc", "summary_of_the_method": "as §1"}, "Gal(b1-4)Glc6S": {"molecular_target": "Gal(b1-4)Glc6S", "summary_of_the_method": "as §1"}, "Gal(b1-4)GlcNAc": {"molecular_target": "Gal(b1-4)GlcNAc", "summary_of_the_method": "as §1"}, "[8]": {"molecular_target": "Gal(b1-4)GlcNAc(a1-6)Gal(b1-4)GlcNAc", "summary_of_the_method": "as §1"}, "[9]": {"molecular_target": "Gal(b1-4)GlcNAc(b1-2)Man(a1-3)[Gal(b1-4)GlcNAc(b1-2)Man(a1-6)]Man(b1-4)GlcNAc(b1-4)GlcNAc", "summary_of_the_method": "as §1"}, "[10]": {"molecular_target": "Gal(b1-4)GlcNAc(b1-3)Gal(b1-3)GlcNAc", "summary_of_the_method": "as §1"}, "[11]": {"molecular_target": "Gal(b1-4)GlcNAc(b1-3)Gal(b1-4)Glc", "summary_of_the_method": "as §1"}, "[12]": {"molecular_target": "Gal(b1-4)GlcNAc(b1-3)Gal(b1-4)GlcNAc", "summary_of_the_method": "as §1"}, "[13]": {"molecular_target": "Gal(b1-4)GlcNAc(b1-3)Gal(b1-4)GlcNAc(b1-3)Gal(b1-4)GlcNAc", "summary_of_the_method": "as §1"}, "[14]": {"molecular_target": "Gal(b1-4)GlcNAc(b1-3)Gal(b1-4)[Fuc(a1-3)]GlcNAc(b1-3)Gal(b1-4)[Fuc(a1-3)]GlcNAc", "summary_of_the_method": "as §1"}, "[15]": {"molecular_target": "Gal(b1-4)GlcNAc(b1-3)GalNAc", "summary_of_the_method": "as §1"}, "[16]": {"molecular_target": "Gal(b1-4)GlcNAc(b1-3)[Gal(b1-4)GlcNAc(b1-6)]Gal(b1-4)GlcNAc", "summary_of_the_method": "as §1"}, "[17]": {"molecular_target": "Gal(b1-4)GlcNAc(b1-3)[GlcNAc(b1-6)]Gal(b1-4)GlcNAc", "summary_of_the_method": "as §1"}, "[18]": {"molecular_target": "Gal(b1-4)GlcNAc(b1-6)Gal(b1-4)GlcNAc", "summary_of_the_method": "as §1"}, "[19]": {"molecular_target": "Gal(b1-4)GlcNAc(b1-6)Gal(b1-4)GlcNAc(b1-6)GalNAc", "summary_of_the_method": "as §1"}, "[20]": {"molecular_target": "Gal(b1-4)GlcNAc(b1-6)GalNAc", "summary_of_the_method": "as §1"}, "[21]": {"molecular_target": "Gal(b1-4)GlcNAc(b1-6)[Gal(b1-3)]GalNAc", "summary_of_the_method": "as §1"}, "Gal3S(b1-3)GalNAc": {"molecular_target": "Gal3S(b1-3)GalNAc", "summary_of_the_method": "as §1"}, "Gal3S(b1-3)GlcNAc": {"molecular_target": "Gal3S(b1-3)GlcNAc", "summary_of_the_method": "as §1"}, "[22]": {"molecular_target": "Gal3S(b1-3)[Fuc(a1-4)]GlcNAc", "summary_of_the_method": "as §1"}, "Gal3S(b1-4)Glc": {"molecular_target": "Gal3S(b1-4)Glc", "summary_of_the_method": "as §1"}, "Gal3S(b1-4)Glc6S": {"molecular_target": "Gal3S(b1-4)Glc6S", "summary_of_the_method": "as §1"}, "Gal3S(b1-4)GlcNAc": {"molecular_target": "Gal3S(b1-4)GlcNAc", "summary_of_the_method": "as §1"}, "Gal3S(b1-4)GlcNAc6S": {"molecular_target": "Gal3S(b1-4)GlcNAc6S", "summary_of_the_method": "as §1"}, "[23]": {"molecular_target": "Gal3S(b1-4)[Fuc(a1-3)]Glc", "summary_of_the_method": "as §1"}, "Gal3S4S(b1-4)GlcNAc": {"molecular_target": "Gal3S4S(b1-4)GlcNAc", "summary_of_the_method": "as §1"}, "Gal3S6S(b1-4)GlcNAc": {"molecular_target": "Gal3S6S(b1-4)GlcNAc", "summary_of_the_method": "as §1"}, "Gal3S6S(b1-4)GlcNAc6S": {"molecular_target": "Gal3S6S(b1-4)GlcNAc6S", "summary_of_the_method": "as §1"}, "Gal4S(b1-4)GlcNAc": {"molecular_target": "Gal4S(b1-4)GlcNAc", "summary_of_the_method": "as §1"}, "Gal4S6S(b1-4)GlcNAc": {"molecular_target": "Gal4S6S(b1-4)GlcNAc", "summary_of_the_method": "as §1"}, "Gal6S(b1-4)Glc": {"molecular_target": "Gal6S(b1-4)Glc", "summary_of_the_method": "as §1"}, "Gal6S(b1-4)Glc6S": {"molecular_target": "Gal6S(b1-4)Glc6S", "summary_of_the_method": "as §1"}, "Gal6S(b1-4)GlcNAc": {"molecular_target": "Gal6S(b1-4)GlcNAc", "summary_of_the_method": "as §1"}, "Gal6S(b1-4)GlcNAc6S": {"molecular_target": "Gal6S(b1-4)GlcNAc6S", "summary_of_the_method": "as §1"}, "GalNAc(a1-3)Gal": {"molecular_target": "GalNAc(a1-3)Gal", "summary_of_the_method": "as §1"}, "GalNAc(a1-3)GalNAc": {"molecular_target": "GalNAc(a1-3)GalNAc", "summary_of_the_method": "as §1"}, "GalNAc(b1-3)Gal": {"molecular_target": "GalNAc(b1-3)Gal", "summary_of_the_method": "as §1"}, "[24]": {"molecular_target": "GalNAc(b1-3)Gal(a1-4)Gal(b1-4)GlcNAc", "summary_of_the_method": "as §1"}},
  "note": "This is one part of the list.",
  "data": [
    {"binder": "B1", "values": [
      {"measurement": "glycan array binding signal (z-score)", "setting": "[1]", "value": -0.236},
      {"measurement": "glycan array binding signal (z-score)", "setting": "[2]", "value": 0.123},
      {"measurement": "glycan array binding signal (z-score)", "setting": "[3]", "value": 0.64},
      {"measurement": "glycan array binding signal (z-score)", "setting": "[4]", "value": -0.975},
      {"measurement": "glycan array binding signal (z-score)", "setting": "[5]", "value": -0.002},
      {"measurement": "glycan array binding signal (z-score)", "setting": "[6]", "value": -0.169},
      {"measurement": "glycan array binding signal (z-score)", "setting": "[7]", "value": -0.34},
      {"measurement": "glycan array binding signal (z-score)", "setting": "Gal(b1-4)Glc", "value": -0.143},
      {"measurement": "glycan array binding signal (z-score)", "setting": "Gal(b1-4)Glc6S", "value": 0.537},
      {"measurement": "glycan array binding signal (z-score)", "setting": "Gal(b1-4)GlcNAc", "value": -0.462},
      {"measurement": "glycan array binding signal (z-score)", "setting": "[8]", "value": 0.37},
      {"measurement": "glycan array binding signal (z-score)", "setting": "[9]", "value": -0.577},
      {"measurement": "glycan array binding signal (z-score)", "setting": "[10]", "value": -1.4},
      {"measurement": "glycan array binding signal (z-score)", "setting": "[11]", "value": -0.669},
      {"measurement": "glycan array binding signal (z-score)", "setting": "[12]", "value": -0.088},
      {"measurement": "glycan array binding signal (z-score)", "setting": "[13]", "value": 0.415},
      {"measurement": "glycan array binding signal (z-score)", "setting": "[14]", "value": -0.466},
      {"measurement": "glycan array binding signal (z-score)", "setting": "[15]", "value": -0.109},
      {"measurement": "glycan array binding signal (z-score)", "setting": "[16]", "value": -0.281},
      {"measurement": "glycan array binding signal (z-score)", "setting": "[17]", "value": -0.03},
      {"measurement": "glycan array binding signal (z-score)", "setting": "[18]", "value": 0.045},
      {"measurement": "glycan array binding signal (z-score)", "setting": "[19]", "value": -1.02},
      {"measurement": "glycan array binding signal (z-score)", "setting": "[20]", "value": 0.347},
      {"measurement": "glycan array binding signal (z-score)", "setting": "[21]", "value": -0.826},
      {"measurement": "glycan array binding signal (z-score)", "setting": "Gal3S(b1-3)GalNAc", "value": 1.84},
      {"measurement": "glycan array binding signal (z-score)", "setting": "Gal3S(b1-3)GlcNAc", "value": 3.28},
      {"measurement": "glycan array binding signal (z-score)", "setting": "[22]", "value": 1.61},
      {"measurement": "glycan array binding signal (z-score)", "setting": "Gal3S(b1-4)Glc", "value": -0.618},
      {"measurement": "glycan array binding signal (z-score)", "setting": "Gal3S(b1-4)Glc6S", "value": 3.45},
      {"measurement": "glycan array binding signal (z-score)", "setting": "Gal3S(b1-4)GlcNAc", "value": 1.39},
      {"measurement": "glycan array binding signal (z-score)", "setting": "Gal3S(b1-4)GlcNAc6S", "value": 1.11},
      {"measurement": "glycan array binding signal (z-score)", "setting": "[23]", "value": 1.15},
      {"measurement": "glycan array binding signal (z-score)", "setting": "Gal3S4S(b1-4)GlcNAc", "value": 2.18},
      {"measurement": "glycan array binding signal (z-score)", "setting": "Gal3S6S(b1-4)GlcNAc", "value": 2},
      {"measurement": "glycan array binding signal (z-score)", "setting": "Gal3S6S(b1-4)GlcNAc6S", "value": 2.4},
      {"measurement": "glycan array binding signal (z-score)", "setting": "Gal4S(b1-4)GlcNAc", "value": 1.32},
      {"measurement": "glycan array binding signal (z-score)", "setting": "Gal4S6S(b1-4)GlcNAc", "value": 1.67},
      {"measurement": "glycan array binding signal (z-score)", "setting": "Gal6S(b1-4)Glc", "value": 0.405},
      {"measurement": "glycan array binding signal (z-score)", "setting": "Gal6S(b1-4)Glc6S", "value": 2.19},
      {"measurement": "glycan array binding signal (z-score)", "setting": "Gal6S(b1-4)GlcNAc", "value": 2.83},
      {"measurement": "glycan array binding signal (z-score)", "setting": "Gal6S(b1-4)GlcNAc6S", "value": 2.04},
      {"measurement": "glycan array binding signal (z-score)", "setting": "GalNAc(a1-3)Gal", "value": 1.01},
      {"measurement": "glycan array binding signal (z-score)", "setting": "GalNAc(a1-3)GalNAc", "value": 0.6},
      {"measurement": "glycan array binding signal (z-score)", "setting": "GalNAc(b1-3)Gal", "value": 0.945},
      {"measurement": "glycan array binding signal (z-score)", "setting": "[24]", "value": -0.376}
    ]}
  ]
}
